Source: article doi:10.1101/2021.07.21.453306
Results are given in words; binding and its absence hold for the method and conditions named. Binding seen in cells or lysates may run through a third protein. Some binding calls cover weakened binding; strength is not graded here.

T1: PICH (PLK-1 interacting checkpoint helicase) (human (endogenous in HeLa)) (UniProt Q2NKX8)
T1 sequence: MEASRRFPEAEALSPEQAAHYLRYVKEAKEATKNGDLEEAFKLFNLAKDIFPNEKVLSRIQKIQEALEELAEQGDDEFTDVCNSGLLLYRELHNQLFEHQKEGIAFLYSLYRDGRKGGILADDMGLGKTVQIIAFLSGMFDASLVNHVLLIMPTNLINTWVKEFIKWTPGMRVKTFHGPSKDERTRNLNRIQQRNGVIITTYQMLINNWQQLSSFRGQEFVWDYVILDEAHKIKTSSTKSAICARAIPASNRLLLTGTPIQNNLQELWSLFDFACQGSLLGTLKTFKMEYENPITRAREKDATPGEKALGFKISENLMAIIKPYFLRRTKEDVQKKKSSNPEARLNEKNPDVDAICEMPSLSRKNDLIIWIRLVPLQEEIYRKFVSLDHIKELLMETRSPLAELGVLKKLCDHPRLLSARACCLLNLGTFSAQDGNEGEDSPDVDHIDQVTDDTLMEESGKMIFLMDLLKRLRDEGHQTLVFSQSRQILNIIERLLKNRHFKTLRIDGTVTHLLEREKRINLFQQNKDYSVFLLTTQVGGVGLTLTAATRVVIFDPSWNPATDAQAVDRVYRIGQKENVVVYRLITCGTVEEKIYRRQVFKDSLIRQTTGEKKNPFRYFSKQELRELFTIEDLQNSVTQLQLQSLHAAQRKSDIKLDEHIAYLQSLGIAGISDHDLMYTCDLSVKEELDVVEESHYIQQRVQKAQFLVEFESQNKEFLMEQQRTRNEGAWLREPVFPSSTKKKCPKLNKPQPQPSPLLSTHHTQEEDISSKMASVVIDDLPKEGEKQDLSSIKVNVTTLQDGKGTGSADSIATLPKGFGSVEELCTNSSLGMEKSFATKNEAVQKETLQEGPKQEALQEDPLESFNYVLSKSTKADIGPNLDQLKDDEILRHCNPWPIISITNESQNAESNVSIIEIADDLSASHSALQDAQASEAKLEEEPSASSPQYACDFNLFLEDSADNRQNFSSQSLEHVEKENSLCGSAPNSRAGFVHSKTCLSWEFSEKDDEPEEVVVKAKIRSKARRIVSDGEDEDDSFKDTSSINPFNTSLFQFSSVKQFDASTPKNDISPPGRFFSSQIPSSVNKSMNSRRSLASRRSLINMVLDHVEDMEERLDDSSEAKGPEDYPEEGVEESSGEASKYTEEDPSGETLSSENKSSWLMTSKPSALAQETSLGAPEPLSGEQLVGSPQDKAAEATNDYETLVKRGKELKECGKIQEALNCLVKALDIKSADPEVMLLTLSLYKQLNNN

T2: Nuclear factor erythroid 2 (NFE2)-related factor 2 (Nrf2) (human (endogenous in HeLa)) (UniProt Q16236)
T2 sequence: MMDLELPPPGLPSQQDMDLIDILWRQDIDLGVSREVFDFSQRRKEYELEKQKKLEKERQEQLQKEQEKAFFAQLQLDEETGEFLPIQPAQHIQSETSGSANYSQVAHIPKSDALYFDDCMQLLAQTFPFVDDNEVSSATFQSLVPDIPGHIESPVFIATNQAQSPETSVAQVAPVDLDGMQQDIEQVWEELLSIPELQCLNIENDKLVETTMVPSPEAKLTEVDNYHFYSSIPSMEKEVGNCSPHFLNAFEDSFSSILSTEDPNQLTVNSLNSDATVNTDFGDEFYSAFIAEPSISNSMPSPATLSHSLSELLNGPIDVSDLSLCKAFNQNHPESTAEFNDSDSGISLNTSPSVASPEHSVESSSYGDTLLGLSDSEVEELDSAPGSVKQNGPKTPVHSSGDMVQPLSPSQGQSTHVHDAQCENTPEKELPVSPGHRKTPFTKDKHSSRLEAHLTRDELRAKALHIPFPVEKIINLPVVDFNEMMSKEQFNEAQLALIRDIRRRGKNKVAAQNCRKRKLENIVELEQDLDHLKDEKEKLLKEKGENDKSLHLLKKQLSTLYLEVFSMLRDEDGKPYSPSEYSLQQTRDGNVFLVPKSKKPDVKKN

B1: Nuclear factor erythroid 2 (NFE2)-related factor 2 (Nrf2) (protein, UniProt Q16236 1-605)
chain: MMDLELPPPGLPSQQDMDLIDILWRQDIDLGVSREVFDFSQRRKEYELEKQKKLEKERQEQLQKEQEKAFFAQLQLDEETGEFLPIQPAQHIQSETSGSANYSQVAHIPKSDALYFDDCMQLLAQTFPFVDDNEVSSATFQSLVPDIPGHIESPVFIATNQAQSPETSVAQVAPVDLDGMQQDIEQVWEELLSIPELQCLNIENDKLVETTMVPSPEAKLTEVDNYHFYSSIPSMEKEVGNCSPHFLNAFEDSFSSILSTEDPNQLTVNSLNSDATVNTDFGDEFYSAFIAEPSISNSMPSPATLSHSLSELLNGPIDVSDLSLCKAFNQNHPESTAEFNDSDSGISLNTSPSVASPEHSVESSSYGDTLLGLSDSEVEELDSAPGSVKQNGPKTPVHSSGDMVQPLSPSQGQSTHVHDAQCENTPEKELPVSPGHRKTPFTKDKHSSRLEAHLTRDELRAKALHIPFPVEKIINLPVVDFNEMMSKEQFNEAQLALIRDIRRRGKNKVAAQNCRKRKLENIVELEQDLDHLKDEKEKLLKEKGENDKSLHLLKKQLSTLYLEVFSMLRDEDGKPYSPSEYSLQQTRDGNVFLVPKSKKPDVKKN
B2: PICH (PLK-1 interacting checkpoint helicase) (protein, UniProt Q2NKX8 1-1250)
chain: MEASRRFPEAEALSPEQAAHYLRYVKEAKEATKNGDLEEAFKLFNLAKDIFPNEKVLSRIQKIQEALEELAEQGDDEFTDVCNSGLLLYRELHNQLFEHQKEGIAFLYSLYRDGRKGGILADDMGLGKTVQIIAFLSGMFDASLVNHVLLIMPTNLINTWVKEFIKWTPGMRVKTFHGPSKDERTRNLNRIQQRNGVIITTYQMLINNWQQLSSFRGQEFVWDYVILDEAHKIKTSSTKSAICARAIPASNRLLLTGTPIQNNLQELWSLFDFACQGSLLGTLKTFKMEYENPITRAREKDATPGEKALGFKISENLMAIIKPYFLRRTKEDVQKKKSSNPEARLNEKNPDVDAICEMPSLSRKNDLIIWIRLVPLQEEIYRKFVSLDHIKELLMETRSPLAELGVLKKLCDHPRLLSARACCLLNLGTFSAQDGNEGEDSPDVDHIDQVTDDTLMEESGKMIFLMDLLKRLRDEGHQTLVFSQSRQILNIIERLLKNRHFKTLRIDGTVTHLLEREKRINLFQQNKDYSVFLLTTQVGGVGLTLTAATRVVIFDPSWNPATDAQAVDRVYRIGQKENVVVYRLITCGTVEEKIYRRQVFKDSLIRQTTGEKKNPFRYFSKQELRELFTIEDLQNSVTQLQLQSLHAAQRKSDIKLDEHIAYLQSLGIAGISDHDLMYTCDLSVKEELDVVEESHYIQQRVQKAQFLVEFESQNKEFLMEQQRTRNEGAWLREPVFPSSTKKKCPKLNKPQPQPSPLLSTHHTQEEDISSKMASVVIDDLPKEGEKQDLSSIKVNVTTLQDGKGTGSADSIATLPKGFGSVEELCTNSSLGMEKSFATKNEAVQKETLQEGPKQEALQEDPLESFNYVLSKSTKADIGPNLDQLKDDEILRHCNPWPIISITNESQNAESNVSIIEIADDLSASHSALQDAQASEAKLEEEPSASSPQYACDFNLFLEDSADNRQNFSSQSLEHVEKENSLCGSAPNSRAGFVHSKTCLSWEFSEKDDEPEEVVVKAKIRSKARRIVSDGEDEDDSFKDTSSINPFNTSLFQFSSVKQFDASTPKNDISPPGRFFSSQIPSSVNKSMNSRRSLASRRSLINMVLDHVEDMEERLDDSSEAKGPEDYPEEGVEESSGEASKYTEEDPSGETLSSENKSSWLMTSKPSALAQETSLGAPEPLSGEQLVGSPQDKAAEATNDYETLVKRGKELKECGKIQEALNCLVKALDIKSADPEVMLLTLSLYKQLNNN

Assays:
[1] = biological target: T1, PICH (PLK-1 interacting checkpoint helicase) (human (endogenous in HeLa)); experiment: co-IP
[2] = biological target: T2, Nuclear factor erythroid 2 (NFE2)-related factor 2 (Nrf2) (human (endogenous in HeLa)); experiment: co-IP

| binding [1] | binding [2] | Binder |
| --- | --- | --- |
| binds |  | B1 |
|  | binds | B2 |
